Assay results: the supplement of paper PMC12819154, “High-throughput peptide-centric local stability assay extends protein–ligand identification to membrane proteins, tissues and bacteria” (Nature Structural & Molecular Biology, 2025)
The other results are listed elsewhere or left out. Most values lie at the level of the controls, where differences are scatter.

Sequences of proteins named here, by UniProt entry; tags and fusion partners are left off. A change or cut given only in a name is not applied to a line headed by its entry.
UniProt Q8NB90: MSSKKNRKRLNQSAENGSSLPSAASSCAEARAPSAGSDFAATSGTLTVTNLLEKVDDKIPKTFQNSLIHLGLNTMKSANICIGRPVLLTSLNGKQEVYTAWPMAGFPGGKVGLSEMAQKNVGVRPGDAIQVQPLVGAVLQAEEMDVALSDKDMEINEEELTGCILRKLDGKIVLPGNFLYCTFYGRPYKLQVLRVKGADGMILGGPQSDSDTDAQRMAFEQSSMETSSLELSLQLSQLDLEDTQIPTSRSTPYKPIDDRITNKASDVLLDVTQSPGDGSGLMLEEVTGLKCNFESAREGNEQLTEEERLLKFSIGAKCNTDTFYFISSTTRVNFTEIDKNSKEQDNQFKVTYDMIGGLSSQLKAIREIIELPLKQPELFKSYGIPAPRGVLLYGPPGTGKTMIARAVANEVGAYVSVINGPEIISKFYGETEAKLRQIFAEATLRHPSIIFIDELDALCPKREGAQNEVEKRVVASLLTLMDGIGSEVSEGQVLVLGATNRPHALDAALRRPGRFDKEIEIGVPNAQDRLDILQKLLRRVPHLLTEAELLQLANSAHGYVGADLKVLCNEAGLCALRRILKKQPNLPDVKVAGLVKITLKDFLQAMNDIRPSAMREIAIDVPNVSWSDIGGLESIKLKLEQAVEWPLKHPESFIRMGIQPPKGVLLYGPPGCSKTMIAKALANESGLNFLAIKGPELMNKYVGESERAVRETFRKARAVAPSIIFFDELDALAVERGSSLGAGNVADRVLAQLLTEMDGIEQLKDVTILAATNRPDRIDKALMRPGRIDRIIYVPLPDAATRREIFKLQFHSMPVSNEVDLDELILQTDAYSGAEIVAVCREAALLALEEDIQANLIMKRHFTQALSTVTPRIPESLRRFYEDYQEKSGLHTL
UniProt Q8N5L8: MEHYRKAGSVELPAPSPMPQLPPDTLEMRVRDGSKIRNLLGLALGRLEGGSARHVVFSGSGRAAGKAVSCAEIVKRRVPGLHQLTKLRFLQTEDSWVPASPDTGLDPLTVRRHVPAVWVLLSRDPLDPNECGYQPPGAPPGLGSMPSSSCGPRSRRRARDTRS
UniProt Q8N3A8: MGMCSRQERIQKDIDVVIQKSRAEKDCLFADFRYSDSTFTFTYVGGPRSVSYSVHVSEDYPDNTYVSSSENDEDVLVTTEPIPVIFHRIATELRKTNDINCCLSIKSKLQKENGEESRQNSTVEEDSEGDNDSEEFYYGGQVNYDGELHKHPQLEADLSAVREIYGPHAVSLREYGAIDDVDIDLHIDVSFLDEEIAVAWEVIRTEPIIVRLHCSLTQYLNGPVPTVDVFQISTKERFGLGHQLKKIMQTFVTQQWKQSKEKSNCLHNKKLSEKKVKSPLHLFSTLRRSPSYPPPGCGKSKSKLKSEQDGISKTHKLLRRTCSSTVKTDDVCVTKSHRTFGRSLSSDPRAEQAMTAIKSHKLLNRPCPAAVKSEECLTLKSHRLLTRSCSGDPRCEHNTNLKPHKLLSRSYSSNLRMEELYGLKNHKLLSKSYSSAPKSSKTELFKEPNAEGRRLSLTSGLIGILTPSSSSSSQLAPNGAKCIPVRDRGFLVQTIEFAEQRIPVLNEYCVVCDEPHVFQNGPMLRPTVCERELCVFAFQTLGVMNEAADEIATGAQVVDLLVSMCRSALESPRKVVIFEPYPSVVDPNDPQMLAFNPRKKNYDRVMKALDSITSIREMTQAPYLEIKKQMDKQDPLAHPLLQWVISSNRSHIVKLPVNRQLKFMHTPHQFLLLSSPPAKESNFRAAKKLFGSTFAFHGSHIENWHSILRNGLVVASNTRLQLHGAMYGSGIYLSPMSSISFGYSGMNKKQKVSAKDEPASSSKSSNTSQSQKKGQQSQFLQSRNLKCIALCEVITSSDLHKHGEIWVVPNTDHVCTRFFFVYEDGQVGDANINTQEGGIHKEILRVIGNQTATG
UniProt Q8NFC6: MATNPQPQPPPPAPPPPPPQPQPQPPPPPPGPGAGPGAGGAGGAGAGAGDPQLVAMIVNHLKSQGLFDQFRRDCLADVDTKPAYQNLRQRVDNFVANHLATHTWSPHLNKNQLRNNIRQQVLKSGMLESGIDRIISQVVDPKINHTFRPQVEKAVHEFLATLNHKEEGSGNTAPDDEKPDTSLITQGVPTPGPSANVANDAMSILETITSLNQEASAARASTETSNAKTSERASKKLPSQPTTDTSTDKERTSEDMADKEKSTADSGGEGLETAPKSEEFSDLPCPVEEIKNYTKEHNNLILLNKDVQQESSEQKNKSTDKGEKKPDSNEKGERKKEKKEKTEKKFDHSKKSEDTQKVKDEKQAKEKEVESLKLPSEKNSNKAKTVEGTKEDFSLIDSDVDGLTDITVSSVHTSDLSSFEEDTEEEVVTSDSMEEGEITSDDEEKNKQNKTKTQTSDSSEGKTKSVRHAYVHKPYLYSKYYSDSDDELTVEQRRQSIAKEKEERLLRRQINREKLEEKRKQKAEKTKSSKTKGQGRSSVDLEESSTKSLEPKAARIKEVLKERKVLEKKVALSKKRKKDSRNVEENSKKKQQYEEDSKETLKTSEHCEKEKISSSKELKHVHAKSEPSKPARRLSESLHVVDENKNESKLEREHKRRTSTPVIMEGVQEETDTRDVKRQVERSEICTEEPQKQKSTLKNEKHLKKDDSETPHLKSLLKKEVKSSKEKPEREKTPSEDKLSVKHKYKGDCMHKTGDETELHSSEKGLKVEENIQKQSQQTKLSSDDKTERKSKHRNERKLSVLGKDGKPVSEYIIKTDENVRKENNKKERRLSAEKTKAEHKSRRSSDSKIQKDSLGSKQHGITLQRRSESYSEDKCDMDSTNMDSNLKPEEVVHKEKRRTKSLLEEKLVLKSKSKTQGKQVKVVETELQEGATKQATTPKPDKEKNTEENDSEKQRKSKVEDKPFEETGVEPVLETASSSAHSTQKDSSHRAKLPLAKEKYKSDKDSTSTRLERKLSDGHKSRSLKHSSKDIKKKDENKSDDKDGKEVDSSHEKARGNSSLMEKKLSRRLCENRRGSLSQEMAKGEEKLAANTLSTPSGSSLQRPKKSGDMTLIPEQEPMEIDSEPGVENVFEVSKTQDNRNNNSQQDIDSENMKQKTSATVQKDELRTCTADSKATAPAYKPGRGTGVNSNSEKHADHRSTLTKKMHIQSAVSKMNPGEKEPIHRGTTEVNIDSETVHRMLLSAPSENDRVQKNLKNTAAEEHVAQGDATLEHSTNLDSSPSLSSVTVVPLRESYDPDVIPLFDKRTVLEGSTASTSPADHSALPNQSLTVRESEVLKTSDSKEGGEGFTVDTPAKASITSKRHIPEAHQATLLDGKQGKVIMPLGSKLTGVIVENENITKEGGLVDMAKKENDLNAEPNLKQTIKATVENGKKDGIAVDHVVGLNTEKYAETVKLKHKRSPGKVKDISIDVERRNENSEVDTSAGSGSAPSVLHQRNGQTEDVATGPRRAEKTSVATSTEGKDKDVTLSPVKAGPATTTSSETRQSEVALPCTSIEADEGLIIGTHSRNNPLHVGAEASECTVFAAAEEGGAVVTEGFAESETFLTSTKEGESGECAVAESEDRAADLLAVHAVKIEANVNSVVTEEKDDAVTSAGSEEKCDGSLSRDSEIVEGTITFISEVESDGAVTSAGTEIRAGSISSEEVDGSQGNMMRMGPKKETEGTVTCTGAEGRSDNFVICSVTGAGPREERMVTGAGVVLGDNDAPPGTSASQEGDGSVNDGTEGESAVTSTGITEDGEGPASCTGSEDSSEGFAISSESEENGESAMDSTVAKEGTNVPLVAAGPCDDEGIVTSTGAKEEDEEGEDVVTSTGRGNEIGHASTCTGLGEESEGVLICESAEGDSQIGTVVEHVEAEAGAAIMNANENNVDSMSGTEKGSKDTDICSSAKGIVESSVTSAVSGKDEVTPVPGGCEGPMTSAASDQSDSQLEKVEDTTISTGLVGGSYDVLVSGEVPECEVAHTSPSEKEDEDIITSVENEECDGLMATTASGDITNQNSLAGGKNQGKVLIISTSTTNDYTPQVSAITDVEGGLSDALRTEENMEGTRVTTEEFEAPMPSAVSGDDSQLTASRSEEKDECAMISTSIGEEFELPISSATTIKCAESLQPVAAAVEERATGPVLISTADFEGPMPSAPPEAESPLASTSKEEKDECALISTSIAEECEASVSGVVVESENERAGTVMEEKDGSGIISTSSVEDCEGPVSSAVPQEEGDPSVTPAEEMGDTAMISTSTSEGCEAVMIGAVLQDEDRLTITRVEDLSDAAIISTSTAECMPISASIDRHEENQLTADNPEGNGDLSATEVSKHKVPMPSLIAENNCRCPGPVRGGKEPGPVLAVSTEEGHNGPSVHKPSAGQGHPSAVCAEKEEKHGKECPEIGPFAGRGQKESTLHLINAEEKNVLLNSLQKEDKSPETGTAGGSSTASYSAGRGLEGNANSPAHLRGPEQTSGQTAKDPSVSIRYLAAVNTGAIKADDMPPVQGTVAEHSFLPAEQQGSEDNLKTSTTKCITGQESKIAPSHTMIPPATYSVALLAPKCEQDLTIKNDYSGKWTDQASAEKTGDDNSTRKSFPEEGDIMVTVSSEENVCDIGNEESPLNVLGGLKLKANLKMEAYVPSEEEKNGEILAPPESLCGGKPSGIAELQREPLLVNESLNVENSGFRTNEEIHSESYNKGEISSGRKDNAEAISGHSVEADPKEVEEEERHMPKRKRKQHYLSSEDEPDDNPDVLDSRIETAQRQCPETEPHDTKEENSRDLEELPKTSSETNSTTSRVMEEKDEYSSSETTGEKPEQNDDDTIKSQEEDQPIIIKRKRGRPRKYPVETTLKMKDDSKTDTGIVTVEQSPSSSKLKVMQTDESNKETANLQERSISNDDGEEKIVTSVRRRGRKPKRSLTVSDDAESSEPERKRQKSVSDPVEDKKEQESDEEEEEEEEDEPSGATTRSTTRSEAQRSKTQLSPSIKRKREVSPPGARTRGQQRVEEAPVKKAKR
UniProt Q8N283: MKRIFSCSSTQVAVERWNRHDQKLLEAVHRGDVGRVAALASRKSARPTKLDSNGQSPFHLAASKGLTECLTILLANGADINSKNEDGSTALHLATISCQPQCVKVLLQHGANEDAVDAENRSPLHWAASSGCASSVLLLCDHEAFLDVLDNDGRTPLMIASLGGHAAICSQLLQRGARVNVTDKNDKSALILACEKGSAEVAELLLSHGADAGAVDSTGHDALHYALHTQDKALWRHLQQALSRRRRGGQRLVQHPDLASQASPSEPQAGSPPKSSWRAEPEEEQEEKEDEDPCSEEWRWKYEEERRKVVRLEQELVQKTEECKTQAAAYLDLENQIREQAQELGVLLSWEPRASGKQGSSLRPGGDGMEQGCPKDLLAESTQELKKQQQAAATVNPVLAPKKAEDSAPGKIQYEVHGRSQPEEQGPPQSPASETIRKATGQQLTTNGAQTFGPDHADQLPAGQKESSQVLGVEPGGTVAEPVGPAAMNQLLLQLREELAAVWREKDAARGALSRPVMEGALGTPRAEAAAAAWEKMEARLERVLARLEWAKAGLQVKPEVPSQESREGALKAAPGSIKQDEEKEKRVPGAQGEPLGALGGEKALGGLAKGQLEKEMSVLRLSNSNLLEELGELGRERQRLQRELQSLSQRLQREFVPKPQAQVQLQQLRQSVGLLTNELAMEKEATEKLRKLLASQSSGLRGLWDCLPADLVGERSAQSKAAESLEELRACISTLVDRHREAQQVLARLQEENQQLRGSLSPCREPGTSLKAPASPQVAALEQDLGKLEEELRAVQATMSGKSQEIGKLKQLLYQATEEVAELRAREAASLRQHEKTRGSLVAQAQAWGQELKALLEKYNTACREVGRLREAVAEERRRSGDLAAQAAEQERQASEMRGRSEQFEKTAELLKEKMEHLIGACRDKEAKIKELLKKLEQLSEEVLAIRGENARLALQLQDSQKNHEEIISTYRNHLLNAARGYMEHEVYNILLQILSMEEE
UniProt Q8N3X6: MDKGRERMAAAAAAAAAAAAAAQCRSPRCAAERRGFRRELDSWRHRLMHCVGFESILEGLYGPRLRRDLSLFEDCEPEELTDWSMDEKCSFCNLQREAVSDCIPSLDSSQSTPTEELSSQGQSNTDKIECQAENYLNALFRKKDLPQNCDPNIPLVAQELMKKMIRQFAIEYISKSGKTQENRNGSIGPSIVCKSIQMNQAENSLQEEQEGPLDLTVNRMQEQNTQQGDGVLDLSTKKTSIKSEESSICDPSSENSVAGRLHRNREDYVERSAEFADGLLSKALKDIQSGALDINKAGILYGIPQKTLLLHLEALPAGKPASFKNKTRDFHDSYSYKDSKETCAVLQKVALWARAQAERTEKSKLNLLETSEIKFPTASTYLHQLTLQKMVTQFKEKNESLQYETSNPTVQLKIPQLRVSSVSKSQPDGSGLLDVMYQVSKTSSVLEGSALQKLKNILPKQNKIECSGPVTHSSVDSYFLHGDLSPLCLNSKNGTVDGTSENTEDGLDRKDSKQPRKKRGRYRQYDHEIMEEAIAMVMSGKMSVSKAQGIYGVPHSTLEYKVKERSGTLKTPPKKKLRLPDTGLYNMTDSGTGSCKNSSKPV

The targets below were run with Cc1nc(Nc2ncc(C(=O)Nc3c(C)cccc3Cl)s2)cc(N2CCN(CCO)CC2)n1 [dasatinib] (assay: log2 fold change of tryptic peptide abundance, ligand vs vehicle (limited proteolysis) (log2 ratio); higher = more trypsin-susceptible (destabilized)). Conditions: ligand concentration: 5 uM; sample: K562 cleared lysate.

Target	log2 fold change
UniProt Q8N184 (peptide sequence: SYECPHCGK, peptide start residue: 476)	-0.03
UniProt Q8N8Z8 (peptide sequence: THTGEKPYECKQCGK, peptide start residue: 272)	0.407
UniProt Q8NEV1 (peptide sequence: ARVYTDVNTHRPR, peptide start residue: 9)	-0.25
SPATA5 (peptide sequence: DFLQAMNDIRPSAMR, peptide start residue: 601) (UniProt Q8NB90)	0.0957
C17orf53 (peptide sequence: LRPVSSRPQETVQAQSSR, peptide start residue: 42) (UniProt Q8N3J3)	-0.161
UniProt Q8N5L8 (peptide sequence: HVVFSGSGR, peptide start residue: 54)	-0.253
UniProt Q8NA31 (peptide sequence: KSLICNKK, peptide start residue: 637)	0.67
UniProt Q8N8E2 (peptide sequence: ALSAESEVEEPARGPGEAR, peptide start residue: 94)	0.114
MPP5 (peptide sequence: EGKNPKPEELR, peptide start residue: 612) (UniProt Q8N3R9)	-0.33
ATL2 (peptide sequence: DLVEYFK, peptide start residue: 351) (UniProt Q8NHH9)	0.239
UniProt Q8N883 (peptide sequence: LAHGQEPWTTDAK, peptide start residue: 60)	-0.152
ADGB (peptide sequence: EILPEFK, peptide start residue: 293) (UniProt Q8N7X0)	0.0344
GSTCD (peptide sequence: FADQTAVQLPPQRR, peptide start residue: 573) (UniProt Q8NEC7)	0.174
PDCD7 (peptide sequence: KGVCPPASADETFTHHLQR, peptide start residue: 336) (UniProt Q8N8D1)	-0.258
ANKRD44 (peptide sequence: GANINAFDKK, peptide start residue: 163) (UniProt Q8N8A2)	-0.221
NIN (peptide sequence: LQQENSILR, peptide start residue: 798) (UniProt Q8N4C6)	0.298
VPS52 (peptide sequence: EIRDEYVETLSK, peptide start residue: 283) (UniProt Q8N1B4)	0.0926
EHBP1L1 (peptide sequence: ETQAQACPQEGTEAHGAR, peptide start residue: 340) (UniProt Q8N3D4)	0.274
C12orf45 (peptide sequence: GKIEVLDSPASK, peptide start residue: 171) (UniProt Q8N5I9)	-0.141

Target	log2 fold change
PCSK9 (peptide sequence: GQPNQCVGHR, peptide start residue: 583) (UniProt Q8NBP7)	0.187
UniProt Q8N371 (peptide sequence: ADHGLIPDVKLEK, peptide start residue: 170)	-0.469
UniProt Q8N3A8 (peptide sequence: KNYDRVMK, peptide start residue: 600)	0.398
UniProt Q8N6R0 (peptide sequence: KAVGHFSR, peptide start residue: 169)	0.49
UniProt Q8NFC6 (peptide sequence: HAYVHKPYLYSK, peptide start residue: 468)	-0.19
VWDE (peptide sequence: NNVCVCREGYTGR, peptide start residue: 1471) (UniProt Q8N2E2)	0.462
TET1 (peptide sequence: KKPSVVVPLEVIK, peptide start residue: 629) (UniProt Q8NFU7)	-0.562
DDHD1 (peptide sequence: HYGESITNIGK, peptide start residue: 734) (UniProt Q8NEL9)	0.171
UniProt Q8N357 (peptide sequence: GRPLAEESEQER, peptide start residue: 347)	0.0372
UniProt Q8N2M8 (peptide sequence: EKEREEWER, peptide start residue: 631)	-0.0845
UniProt Q8NDW4 (peptide sequence: KILREYK, peptide start residue: 322)	0.157
UniProt Q8N283 (peptide sequence: ALGGLAK, peptide start residue: 604)	-0.0832
FAM160A2 (peptide sequence: SISEPALLR, peptide start residue: 360) (UniProt Q8N612)	0.439
LCORL (peptide sequence: QFAIEYISK, peptide start residue: 167) (UniProt Q8N3X6)	-0.47
UniProt Q8NDF8 (peptide sequence: DFLPLETTNNNNNHHQPGAWAR, peptide start residue: 20)	0.331
GPD1L (peptide sequence: KALGITLIK, peptide start residue: 114) (UniProt Q8N335)	-0.172
UniProt Q8N8R7 (peptide sequence: SCCDPFNIHKK, peptide start residue: 74)	-0.0617
SRFBP1 (peptide sequence: QQLQLPLHPSWEASR, peptide start residue: 394) (UniProt Q8NEF9)	0.111

Quoted at random: three records from the list, in no set order.
Target	log2 fold change
UniProt Q8N371 (peptide sequence: ADHGLIPDVKLEK, peptide start residue: 170)	-0.469
VWDE (peptide sequence: NNVCVCREGYTGR, peptide start residue: 1471) (UniProt Q8N2E2)	0.462
TET1 (peptide sequence: KKPSVVVPLEVIK, peptide start residue: 629) (UniProt Q8NFU7)	-0.562
